Data source: PubChem BioAssay AID1671195 (Yale University, 2021)

- Test: 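Genes whose knockdown alters LDL uptake in liver cancer cells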 (primary screen)
- Cells: human Huh7 hepatoma cells
- Reagents: siRNA pool against human genes, 18 nM
- Duration: about 2 to 2.5 days of knockdown, then 8 h LDL uptake
- Conditions: DiI-labelled LDL at 30 µg/ml for 8 h, in lipoprotein-deficient serum medium
- Measurement: 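Per-cell DiI-LDL intensity by automated imaging; well means scaled to the plate median and given as a robust z-score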
- Reading the numbers: robust z-score: higher = more LDL uptake after knockdown
- Rule for the call: 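a gene counts as active if at least two replicate z-scores exceed ±2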
Shown is a random part of about 22,000 reagents. Over the whole deposit, about 1,510 (6.9%) were called active. 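Active includes knockdowns raising or lowering LDL uptake; positive z-scores mean more uptake, negative mean less.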

TNP2
- robust z-score, replicate 1: -1.45
- robust z-score, replicate 2: -1.79
- robust z-score, replicate 3: -1.32
- Outcome: inactive

PHETA2
- robust z-score, replicate 1: 1.77
- robust z-score, replicate 2: 1.24
- robust z-score, replicate 3: 1.82
- Outcome: inactive

THSD7A
- robust z-score, replicate 1: 0.698
- robust z-score, replicate 2: 0.206
- robust z-score, replicate 3: 0.714
- Outcome: inactive

LOC401605 (retired record)
- robust z-score, replicate 1: -1.3
- robust z-score, replicate 2: -1.36
- robust z-score, replicate 3: -1.58
- Outcome: inactive

YAP1
- robust z-score, replicate 1: -1.21
- robust z-score, replicate 2: 0.397
- robust z-score, replicate 3: 0.345
- Outcome: inactive

CEBPA
- robust z-score, replicate 1: -0.976
- robust z-score, replicate 2: -0.703
- robust z-score, replicate 3: 1.16
- Outcome: inactive

LINC01623
- robust z-score, replicate 1: -0.065
- robust z-score, replicate 2: 0.601
- robust z-score, replicate 3: 0.0673
- Outcome: inactive

TECPR1
- robust z-score, replicate 1: 0.000901
- robust z-score, replicate 2: 0.0176
- robust z-score, replicate 3: 0.0609
- Outcome: inactive

ACAD8
- robust z-score, replicate 1: 1.46
- robust z-score, replicate 2: 1.02
- robust z-score, replicate 3: 1.55
- Outcome: inactive

PRM3
- robust z-score, replicate 1: -1.21
- robust z-score, replicate 2: -0.858
- robust z-score, replicate 3: -0.662
- Outcome: inactive

BPIFA1
- robust z-score, replicate 1: 1.62
- robust z-score, replicate 2: 0.953
- robust z-score, replicate 3: 2.07
- Outcome: inactive

Entries listed so far whose gene name begins with L or l (2):
LOC401605 (retired record)
- robust z-score, replicate 1: -1.3
- robust z-score, replicate 2: -1.36
- robust z-score, replicate 3: -1.58
- Outcome: inactive

LINC01623
- robust z-score, replicate 1: -0.065
- robust z-score, replicate 2: 0.601
- robust z-score, replicate 3: 0.0673
- Outcome: inactive

More reagents follow:
LDLRAD2
- robust z-score, replicate 1: 1.29
- robust z-score, replicate 2: 1.39
- robust z-score, replicate 3: 1.25
- Outcome: inactive

DYNLT2B
- robust z-score, replicate 1: -0.896
- robust z-score, replicate 2: -0.587
- robust z-score, replicate 3: -0.497
- Outcome: inactive

VPREB1
- robust z-score, replicate 1: -0.308
- robust z-score, replicate 2: -0.796
- robust z-score, replicate 3: -0.868
- Outcome: inactive

OR10G3
- robust z-score, replicate 1: 4.22
- robust z-score, replicate 2: -0.393
- robust z-score, replicate 3: 1.15
- Outcome: inactive

SLC27A6
- robust z-score, replicate 1: -0.108
- robust z-score, replicate 2: 0.299
- robust z-score, replicate 3: -0.75
- Outcome: inactive

SON
- robust z-score, replicate 1: -0.704
- robust z-score, replicate 2: 0.8
- robust z-score, replicate 3: -0.596
- Outcome: inactive

SESTD1
- robust z-score, replicate 1: 2.04
- robust z-score, replicate 2: 2.3
- robust z-score, replicate 3: 2
- Outcome: active

KRT81
- robust z-score, replicate 1: 0.915
- robust z-score, replicate 2: -0.224
- robust z-score, replicate 3: 0.297
- Outcome: inactive

DRC3
- robust z-score, replicate 1: 1.47
- robust z-score, replicate 2: 0.103
- robust z-score, replicate 3: 0.893
- Outcome: inactive

SQLE
- robust z-score, replicate 1: 1.84
- robust z-score, replicate 2: 4.05
- robust z-score, replicate 3: 2.71
- Outcome: active

PIERCE1
- robust z-score, replicate 1: -0.228
- robust z-score, replicate 2: -0.598
- robust z-score, replicate 3: -0.00154
- Outcome: inactive

SLFN13
- robust z-score, replicate 1: 1.74
- robust z-score, replicate 2: 1.83
- robust z-score, replicate 3: 1.42
- Outcome: inactive

OR3A3
- robust z-score, replicate 1: -0.714
- robust z-score, replicate 2: -0.48
- robust z-score, replicate 3: -1.07
- Outcome: inactive
